Source: US20030044413A1, “Methods of limiting apoptosis of cells” (Regents of the University of Minnesota, priority 1998, published 2003)
Entries after “also recorded” stand apart in the source; their conditions may differ. For at least one compound, name, drawing or mass did not settle the structure.

Key:
[1] = tested on: hepatocytes, HuH-7, Hep G2 and Saos-2 cells; assay: FACS analysis of ΔΨm and ROS, summary over all cell types; assay type: cell-based; details: UDCA alone; all cell types with the exception of Hep G2 cells
Experimental: A ΔΨm and ROS measurement. ΔΨm and ROS production were measured by FACScan (Becton Dickinson) analysis. Freshly isolated rat hepatocytes were cultured for 3 h as described above and then incubated with William's E medium supplemented with either 100 μM DCA, 100 μM UDCA, equal molar amounts of both, or no bile acid (control), for 6 h. Rat hepatocytes were also cultured with either 1% ethanol, 100 μM UDCA, ethanol+UDCA, or no addition (control) for 4 h. HuH-7 cells, Hep G2 cells, and human osteogenic sarcoma Saos-2 cells were incubated with TGF-β1, anti-Fas antibody or okadaic acid, respectively, for 48 h under the same conditions as outlined above. For combination studies, cells were pretreated with UDCA or hyodeoxycholic acid for 60 min prior to addition of DCA, ethanol, TGF-β1, anti-Fas antibody or okadaic acid. Aliquots of 1.0×10^6 cells were incubated for 15 min at 37° C. with 50 nM 3,3′-dihexyloxacarbocyanine iodide [DiOC6(3)], 2 μM dihydroethidium (HE), or 5 μM 2′,7′-dichlorofluorescin diacetate (H2DCFDA; Molecular Probes, Inc. Eugene, Oreg.) and analyzed by cytofluorometry (Cathcart et al., Anal. Biochem., 134, 111-116 (1983); Zamzami et al., J. Exp. Med., 181, 1661-1672 (1 995); Carter et al., J. Leukocyte Biol., 55, 253-258 (1994)).

[2] = tested on: isolated rat liver mitochondria; assay: MPT spectrophotometric assay (mitochondrial swelling)
Experimental: Isolation of mitochondria and MPT assays. Low calcium liver mitochondria were isolated from male 200-250 g Sprague-Dawley rats by density gradient centrifugation as previously published (Botla et al., J. Pharmacol. Exp. Ther., 272, 930-938 (1995); Walajtys-Rhode et al., J. Biol. Chem., 267, 370-379 (1992); and Sokol et al., Gastroenterology, 99, 1061-1071 (1990)). The mitochondrial fraction was resuspended in 30 ml of wash buffer containing 0.1 M KCl, 5 mM 3-(N-morpholino)-propane sulfonic acid (MOPS), and 1 mM EGTA, at pH 7.4 and centrifuged at 7,000×g for 10 min at 4° C. A final wash was carried out in chelex-100-treated buffer (Bio-Rad Laboratories, Hercules, Calif.) containing no EGTA. The resulting pellet was suspended in 4 ml of chelex--100-treated buffer containing 125 mM sucrose, 5 mM HEPES, 50 mM KCl and 2 mM KH2PO4. The usual yield of mitochondria was approximately 25 mg of protein per gram of liver tissue. Mitochondrial purity was established as previously described (Botla et al., J. Pharmacol. Exp. Ther., 272, 930-938 (1995)). Protein concentrations were determined using the Bio-Rad protein assay kit as specified by the manufacturer.
MPT was measured spectrophotometrically as described previously (Botla et al., J. Pharmacol. Exp. Ther., 272, 930-938 (1995); Pastorino et al., J. Biol. Chem., 268, 13791-13798 (1993)), during 10 min incubations at 25° C. using mitochondria (1 mg of protein/ml) suspended in 3 ml of a chelex-100-treated buffer containing 0.1 M NaCl, 10 mM MOPS, pH 7.4. Swelling was monitored at 540 nm in a Beckman DU 64 spectrophotometer. Basal values of mitochondria absorbance were measured for 5 min, and the optical density was monitored another 5 min after addition of 200 μM DCA or 80 μM phenylarsine oxide (PhAsO; Sigma Chemical Co.). […]
Spectrophotometric and Fluorimetric Assays of MPT. The MPT was assessed using a spectrophotometric assay measuring high amplitude rapid changes in mitochondrial volume, and a fluorimetric assay quantitating the release of calcein from calcein-loaded mitochondria. […]

Compound: C[C@H](CCC(=O)O)[C@H]1CC[C@H]2[C@@H]3[C@@H](O)C[C@@H]4C[C@H](O)CC[C@]4(C)[C@H]3CC[C@]12C [UDCA, ursodeoxycholic acid]
- ΔΨm and ROS production compared to control values [1]: increased ΔΨm and reduced ROS production
- effect of coincubation with both UDCA and cyclosporine on MPT ([2]; DCA-induced MPT): did not produce an additive effect
- reversal of MPT ([2]; UDCA added after incubation with DCA, data not shown): did not result in significant reversal of MPT
- mitochondrial swelling with the substance alone ([2]; substance alone added to isolated mitochondria): no significant changes in permeability; also recorded: no significant difference from control values
